Source: the supplement of paper PMC10849652
The list shows a part of the results.

Sequences of proteins named here, by UniProt entry; tags and fusion partners are left off. A change or cut given only in a name is not applied to a line headed by its entry.
UniProt Q16880: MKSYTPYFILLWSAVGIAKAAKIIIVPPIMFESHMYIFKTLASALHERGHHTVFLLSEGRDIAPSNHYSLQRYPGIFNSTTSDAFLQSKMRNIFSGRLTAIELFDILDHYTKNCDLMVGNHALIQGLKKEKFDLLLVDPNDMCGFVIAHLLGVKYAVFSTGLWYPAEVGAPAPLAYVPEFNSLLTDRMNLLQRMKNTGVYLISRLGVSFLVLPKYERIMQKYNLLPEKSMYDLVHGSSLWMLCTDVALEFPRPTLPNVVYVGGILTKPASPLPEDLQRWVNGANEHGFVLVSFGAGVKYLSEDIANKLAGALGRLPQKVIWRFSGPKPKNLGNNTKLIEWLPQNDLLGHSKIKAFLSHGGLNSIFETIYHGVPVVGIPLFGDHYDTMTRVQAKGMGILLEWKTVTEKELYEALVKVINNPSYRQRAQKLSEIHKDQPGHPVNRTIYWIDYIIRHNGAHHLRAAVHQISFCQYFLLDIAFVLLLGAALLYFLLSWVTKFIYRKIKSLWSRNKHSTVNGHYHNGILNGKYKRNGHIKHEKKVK
UniProt Q8TED0: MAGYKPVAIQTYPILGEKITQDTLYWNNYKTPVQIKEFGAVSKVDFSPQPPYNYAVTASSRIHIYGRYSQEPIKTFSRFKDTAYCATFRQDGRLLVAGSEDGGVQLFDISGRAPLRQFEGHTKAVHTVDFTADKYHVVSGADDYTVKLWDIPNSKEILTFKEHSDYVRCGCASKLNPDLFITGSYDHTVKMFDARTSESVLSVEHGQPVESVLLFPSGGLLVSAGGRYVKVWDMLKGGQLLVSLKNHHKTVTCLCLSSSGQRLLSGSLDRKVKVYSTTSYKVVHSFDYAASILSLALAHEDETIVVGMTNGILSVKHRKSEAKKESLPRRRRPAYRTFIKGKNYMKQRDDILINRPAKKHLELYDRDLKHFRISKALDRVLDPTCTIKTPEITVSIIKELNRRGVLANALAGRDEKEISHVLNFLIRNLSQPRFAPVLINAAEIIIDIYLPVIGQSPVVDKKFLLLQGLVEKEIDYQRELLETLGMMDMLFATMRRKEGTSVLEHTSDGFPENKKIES
UniProt O94888: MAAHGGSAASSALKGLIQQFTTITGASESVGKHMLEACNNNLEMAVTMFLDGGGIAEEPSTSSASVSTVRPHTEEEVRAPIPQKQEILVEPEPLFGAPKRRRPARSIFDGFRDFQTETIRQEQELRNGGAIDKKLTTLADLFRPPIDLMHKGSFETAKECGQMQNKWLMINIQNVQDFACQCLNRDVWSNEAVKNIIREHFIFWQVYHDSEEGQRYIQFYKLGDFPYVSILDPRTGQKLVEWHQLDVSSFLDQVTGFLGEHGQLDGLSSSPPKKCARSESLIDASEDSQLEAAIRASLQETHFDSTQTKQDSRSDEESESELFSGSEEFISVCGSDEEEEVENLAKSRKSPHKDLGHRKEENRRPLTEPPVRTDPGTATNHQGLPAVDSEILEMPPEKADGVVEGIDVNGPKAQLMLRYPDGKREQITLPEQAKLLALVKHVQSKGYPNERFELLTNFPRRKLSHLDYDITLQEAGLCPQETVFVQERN
UniProt Q9HAU5: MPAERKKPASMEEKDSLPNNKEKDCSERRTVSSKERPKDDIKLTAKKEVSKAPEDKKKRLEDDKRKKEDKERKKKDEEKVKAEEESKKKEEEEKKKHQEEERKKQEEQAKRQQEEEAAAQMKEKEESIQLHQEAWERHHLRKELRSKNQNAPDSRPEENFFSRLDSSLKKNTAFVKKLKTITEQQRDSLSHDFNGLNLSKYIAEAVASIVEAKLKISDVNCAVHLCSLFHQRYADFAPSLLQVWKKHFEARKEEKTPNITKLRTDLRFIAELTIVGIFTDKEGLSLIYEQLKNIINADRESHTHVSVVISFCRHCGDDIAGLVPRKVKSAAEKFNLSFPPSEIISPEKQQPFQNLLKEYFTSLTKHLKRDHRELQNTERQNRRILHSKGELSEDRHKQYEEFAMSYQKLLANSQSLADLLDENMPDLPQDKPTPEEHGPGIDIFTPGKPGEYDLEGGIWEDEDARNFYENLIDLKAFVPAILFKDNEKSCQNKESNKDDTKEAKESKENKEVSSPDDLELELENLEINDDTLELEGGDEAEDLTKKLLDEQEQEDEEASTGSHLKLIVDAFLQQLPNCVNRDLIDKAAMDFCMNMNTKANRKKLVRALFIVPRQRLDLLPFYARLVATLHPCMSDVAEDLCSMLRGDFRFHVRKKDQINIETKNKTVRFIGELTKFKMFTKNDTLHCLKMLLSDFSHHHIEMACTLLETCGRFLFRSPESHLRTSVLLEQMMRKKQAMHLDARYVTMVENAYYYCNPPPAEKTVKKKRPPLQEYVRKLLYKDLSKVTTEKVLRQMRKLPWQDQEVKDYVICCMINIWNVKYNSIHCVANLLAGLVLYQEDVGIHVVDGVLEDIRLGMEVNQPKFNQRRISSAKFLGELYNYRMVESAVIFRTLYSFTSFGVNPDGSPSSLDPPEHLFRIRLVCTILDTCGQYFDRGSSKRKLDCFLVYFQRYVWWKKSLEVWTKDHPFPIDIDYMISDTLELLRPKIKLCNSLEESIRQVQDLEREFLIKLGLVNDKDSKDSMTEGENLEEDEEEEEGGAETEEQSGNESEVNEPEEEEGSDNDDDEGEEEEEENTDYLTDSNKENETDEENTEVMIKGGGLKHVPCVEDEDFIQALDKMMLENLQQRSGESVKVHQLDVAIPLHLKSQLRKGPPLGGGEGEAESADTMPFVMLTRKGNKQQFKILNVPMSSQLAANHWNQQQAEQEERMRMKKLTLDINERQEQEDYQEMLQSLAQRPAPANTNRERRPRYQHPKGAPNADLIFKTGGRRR
UniProt Q9NVA1: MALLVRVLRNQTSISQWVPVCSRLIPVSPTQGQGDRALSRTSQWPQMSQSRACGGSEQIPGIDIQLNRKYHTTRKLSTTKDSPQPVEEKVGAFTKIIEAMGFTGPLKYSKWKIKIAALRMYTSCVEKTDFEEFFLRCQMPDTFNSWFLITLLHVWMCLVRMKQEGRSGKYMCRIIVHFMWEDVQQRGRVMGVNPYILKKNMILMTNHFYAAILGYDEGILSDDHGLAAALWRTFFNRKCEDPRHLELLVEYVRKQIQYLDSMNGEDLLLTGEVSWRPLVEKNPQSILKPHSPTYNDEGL
UniProt O75379: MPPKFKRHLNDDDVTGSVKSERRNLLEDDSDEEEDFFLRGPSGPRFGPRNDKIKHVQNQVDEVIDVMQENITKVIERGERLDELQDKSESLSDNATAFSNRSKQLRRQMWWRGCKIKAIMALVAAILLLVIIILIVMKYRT
UniProt Q9Y3C8: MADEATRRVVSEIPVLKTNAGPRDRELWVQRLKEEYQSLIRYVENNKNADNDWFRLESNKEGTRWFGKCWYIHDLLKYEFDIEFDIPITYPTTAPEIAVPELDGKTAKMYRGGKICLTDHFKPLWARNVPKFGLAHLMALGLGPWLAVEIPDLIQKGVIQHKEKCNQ
UniProt P50552: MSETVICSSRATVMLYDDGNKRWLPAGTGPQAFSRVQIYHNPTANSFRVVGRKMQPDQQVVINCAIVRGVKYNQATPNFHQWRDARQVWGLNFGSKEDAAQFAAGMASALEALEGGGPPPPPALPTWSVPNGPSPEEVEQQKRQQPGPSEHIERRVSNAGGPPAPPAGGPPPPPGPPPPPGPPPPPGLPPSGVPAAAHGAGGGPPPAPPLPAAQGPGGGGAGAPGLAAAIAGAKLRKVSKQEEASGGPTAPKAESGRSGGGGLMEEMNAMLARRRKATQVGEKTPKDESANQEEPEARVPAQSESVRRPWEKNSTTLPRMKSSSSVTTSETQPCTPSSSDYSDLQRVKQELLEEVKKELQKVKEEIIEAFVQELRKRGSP
UniProt O14562: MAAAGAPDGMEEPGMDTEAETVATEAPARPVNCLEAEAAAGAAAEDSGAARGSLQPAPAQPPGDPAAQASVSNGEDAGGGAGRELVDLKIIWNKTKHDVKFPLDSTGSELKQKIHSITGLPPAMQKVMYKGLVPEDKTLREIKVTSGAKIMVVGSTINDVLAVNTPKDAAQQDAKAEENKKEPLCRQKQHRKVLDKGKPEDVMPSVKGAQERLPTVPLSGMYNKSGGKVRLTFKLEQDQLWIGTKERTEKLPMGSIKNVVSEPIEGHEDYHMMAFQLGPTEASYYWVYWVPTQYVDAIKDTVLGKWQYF
UniProt O14949: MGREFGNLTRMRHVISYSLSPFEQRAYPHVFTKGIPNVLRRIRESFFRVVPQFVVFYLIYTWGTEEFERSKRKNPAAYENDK
UniProt P14927: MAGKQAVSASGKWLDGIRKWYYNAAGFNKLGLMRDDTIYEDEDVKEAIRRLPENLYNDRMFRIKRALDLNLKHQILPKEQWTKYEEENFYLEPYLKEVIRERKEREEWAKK
UniProt Q9NZ43: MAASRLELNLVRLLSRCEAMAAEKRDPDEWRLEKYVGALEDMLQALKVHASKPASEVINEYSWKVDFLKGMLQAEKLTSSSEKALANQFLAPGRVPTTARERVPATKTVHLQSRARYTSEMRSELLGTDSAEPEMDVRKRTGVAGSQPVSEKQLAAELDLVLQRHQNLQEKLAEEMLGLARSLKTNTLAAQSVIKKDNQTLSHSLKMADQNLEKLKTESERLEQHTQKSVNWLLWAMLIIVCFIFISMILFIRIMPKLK
UniProt P31930: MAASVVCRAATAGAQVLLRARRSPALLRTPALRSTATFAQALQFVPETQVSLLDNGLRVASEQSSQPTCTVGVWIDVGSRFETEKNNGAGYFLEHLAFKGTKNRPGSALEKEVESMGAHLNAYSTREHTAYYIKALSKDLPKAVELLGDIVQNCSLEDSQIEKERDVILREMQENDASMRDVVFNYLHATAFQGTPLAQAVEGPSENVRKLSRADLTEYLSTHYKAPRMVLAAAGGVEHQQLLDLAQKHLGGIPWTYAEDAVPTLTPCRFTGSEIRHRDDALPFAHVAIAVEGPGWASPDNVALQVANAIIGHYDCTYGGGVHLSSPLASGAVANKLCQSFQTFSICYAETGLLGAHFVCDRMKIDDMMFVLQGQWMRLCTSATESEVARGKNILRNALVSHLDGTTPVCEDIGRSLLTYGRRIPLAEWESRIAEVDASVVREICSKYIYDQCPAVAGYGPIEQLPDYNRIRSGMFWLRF
UniProt P11441: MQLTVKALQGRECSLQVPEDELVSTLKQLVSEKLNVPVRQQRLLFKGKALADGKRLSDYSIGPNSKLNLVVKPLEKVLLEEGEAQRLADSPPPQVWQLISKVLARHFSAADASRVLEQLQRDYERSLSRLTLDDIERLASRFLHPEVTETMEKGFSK
UniProt Q08AM6: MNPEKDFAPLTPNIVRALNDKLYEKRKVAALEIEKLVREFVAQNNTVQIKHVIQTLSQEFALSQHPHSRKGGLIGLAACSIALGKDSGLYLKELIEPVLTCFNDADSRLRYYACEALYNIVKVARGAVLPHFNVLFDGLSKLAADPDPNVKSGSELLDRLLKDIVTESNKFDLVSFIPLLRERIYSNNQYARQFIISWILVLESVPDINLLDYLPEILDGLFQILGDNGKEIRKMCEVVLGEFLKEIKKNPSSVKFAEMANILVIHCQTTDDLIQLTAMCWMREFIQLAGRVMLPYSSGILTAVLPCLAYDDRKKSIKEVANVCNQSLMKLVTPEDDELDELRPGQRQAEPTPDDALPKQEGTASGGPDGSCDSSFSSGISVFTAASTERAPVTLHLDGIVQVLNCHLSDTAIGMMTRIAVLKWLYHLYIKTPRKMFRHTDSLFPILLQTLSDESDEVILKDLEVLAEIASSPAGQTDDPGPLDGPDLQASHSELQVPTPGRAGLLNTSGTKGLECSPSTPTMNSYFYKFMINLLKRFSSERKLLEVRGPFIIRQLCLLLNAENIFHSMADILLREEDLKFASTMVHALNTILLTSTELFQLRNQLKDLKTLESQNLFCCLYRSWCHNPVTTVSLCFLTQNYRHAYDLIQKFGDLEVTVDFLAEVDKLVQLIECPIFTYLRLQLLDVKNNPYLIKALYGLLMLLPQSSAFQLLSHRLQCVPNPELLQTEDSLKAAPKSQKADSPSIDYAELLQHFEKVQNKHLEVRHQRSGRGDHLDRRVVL

Experiments:
Test in all cases: log2 fold change, soluble protein after heating vs DMSO (PISA); higher = thermal stabilisation; K562 cells, 10 uM, 30 min; active = over 0.2 and 3.5 SD of the protein, either way, in both replicates (recomputed)
[1] = compound: COC1=CC=C(C=C1)CN2C=CC3=C2C=C(C=C3)C(=O)NO
Outline: (§1)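 K562 cells at 2×10^6 cells/mL were given 10 μM compound for 30 min. Aliquots then went through 3 min of heating across 48°C-58°C, were pooled, and were extracted in PBS with 0.5% NP-40 at 4°C, and the supernatant after 21,000xg for 90 min was quantified by TMTpro 16plex LC-MS/MS with channel sums equalised. Thermal stability relative to control samples, from duplicates, is given as log2 fold change.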

filanesib = compound: CON(C)C(=O)N1N=C(c2cc(F)ccc2F)S[C@@]1(CCCN)c1ccccc1 [filanesib]
Outline: as §1

zotarolimus = compound: CO[C@H]1C[C@@H]2CC[C@@H](C)[C@@](O)(O2)C(=O)C(=O)N2CCCC[C@H]2C(=O)O[C@H]([C@H](C)C[C@@H]2CC[C@H](n3cnnn3)[C@H](OC)C2)CC(=O)[C@H](C)/C=C(\C)[C@@H](O)[C@@H](OC)C(=O)[C@H](C)C[C@H](C)/C=C/C=C/C=C/1C [zotarolimus]
Outline: as §1

idasanutlin = compound: COc1cc(C(=O)O)ccc1NC(=O)[C@@H]1N[C@@H](CC(C)(C)C)[C@](C#N)(c2ccc(Cl)cc2F)[C@H]1c1cccc(Cl)c1F [idasanutlin]
Outline: as §1

alisertib = compound: COc1cc(Nc2ncc3c(n2)-c2ccc(Cl)cc2C(c2c(F)cccc2OC)=NC3)ccc1C(=O)O [alisertib]
Outline: as §1

[2] = compound: COc1cc2nc(-c3cc(F)ccc3O)nc(N[C@@H]3CNC[C@H]3C(C)(C)O)c2cc1OC
Outline: as §1

gefitinib = compound: COc1cc2ncnc(Nc3ccc(F)c(Cl)c3)c2cc1OCCCN1CCOCC1 [gefitinib]
Outline: as §1

[3] = compound: COc1cccc2cc(-c3nc([C@H]4CC[C@H](C(=O)O)CC4)n4ncnc(N)c34)[nH]c12
Outline: as §1

lapatinib = compound: CS(=O)(=O)CCNCc1ccc(-c2ccc3ncnc(Nc4ccc(OCc5cccc(F)c5)c(Cl)c4)c3c2)o1 [lapatinib]
Outline: as §1

pictilisib = compound: CS(=O)(=O)N1CCN(Cc2cc3nc(-c4cccc5[nH]ncc45)nc(N4CCOCC4)c3s2)CC1 [pictilisib]
Outline: as §1

[4] = compound: CS(=O)(=O)c1ccc(-c2cnc(N)c(C(=O)Nc3ccccc3)n2)cc1
Outline: as §1

crizotinib = compound: C[C@@H](Oc1cc(-c2cnn(C3CCNCC3)c2)cnc1N)c1c(Cl)ccc(F)c1Cl [crizotinib]
Outline: as §1

[5] = compound: C[C@@H]1COCCN1C2=NC(=NC(=C2)C3(CC3)S(=O)(=O)C)C4=C5C=CNC5=CC=C4
Outline: as §1

[6] = compound: C[C@H](C1=CC=C(C=C1)C(=O)NC2=C3C=CNC3=NC=C2)N
Outline: as §1

duvelisib = compound: C[C@H](Nc1ncnc2nc[nH]c12)c1cc2cccc(Cl)c2c(=O)n1-c1ccccc1 [duvelisib]
Outline: as §1

gandotinib = compound: Cc1cc(Nc2cc(CN3CCOCC3)c3nc(C)c(Cc4ccc(Cl)cc4F)n3n2)n[nH]1 [gandotinib]
Outline: as §1

tozasertib = compound: Cc1cc(Nc2cc(N3CCN(C)CC3)nc(Sc3ccc(NC(=O)C4CC4)cc3)n2)n[nH]1 [tozasertib]
Outline: as §1

[7] = compound: Cc1cc(SCc2sc(-c3ccc(C(F)(F)F)cc3)nc2C)ccc1OCC(=O)O
Outline: as §1

doramapimod = compound: Cc1ccc(-n2nc(C(C)(C)C)cc2NC(=O)Nc2ccc(OCCN3CCOCC3)c3ccccc23)cc1 [doramapimod]
Outline: as §1

ispinesib = compound: Cc1ccc(C(=O)N(CCCN)[C@@H](c2nc3cc(Cl)ccc3c(=O)n2Cc2ccccc2)C(C)C)cc1 [ispinesib]
Outline: as §1

Measured: log2 fold change

UGT8 (UniProt Q16880)
inactive: [1] -0.069 | filanesib 0.268 | zotarolimus 0.235 | idasanutlin 0.087 | alisertib -0.031 | [2] 0.018 | gefitinib 0.058 | [3] -0.042 | lapatinib 0.317 | pictilisib -0.026 | [4] 0.168 | crizotinib 0.234 | [5] 0.019 | [6] 0.024 | duvelisib 0.114 | gandotinib 0.068 | tozasertib -0.061 | [7] -0.08 | doramapimod 0.084 | ispinesib -0.048

UBR5 (UniProt O95071)
inactive: [1] -0.001 | filanesib 0.138 | zotarolimus 0.011 | idasanutlin 0.072 | alisertib 0.007 | [2] -0.029 | gefitinib -0.049 | [3] -0.05 | lapatinib 0.069 | pictilisib -0.008 | [4] -0.023 | crizotinib 0.017 | [5] -0.018 | [6] 0.069 | duvelisib -0.052 | gandotinib 0 | tozasertib 0.222 | [7] 0.046 | doramapimod 0.036 | ispinesib -0.045

UTP15 (UniProt Q8TED0)
inactive: [1] -0.078 | filanesib 0.438 | zotarolimus 0.003 | idasanutlin 0.167 | alisertib -0.04 | [2] -0.003 | gefitinib -0.056 | [3] -0.103 | lapatinib 0.139 | pictilisib -0.115 | [4] -0.079 | crizotinib 0.065 | [5] -0.49 | [6] 0.416 | duvelisib -0.15 | gandotinib 0.236 | tozasertib -0.024 | [7] -0.028 | doramapimod 0.201 | ispinesib -0.148

UBXN7 (UniProt O94888)
inactive: [1] 0 | filanesib -0.021 | zotarolimus 0.051 | idasanutlin -0.083 | alisertib -0.021 | [2] 0.001 | gefitinib 0.002 | [3] 0.024 | lapatinib 0.019 | pictilisib -0.014 | [4] -0.02 | crizotinib 0.004 | [5] 0.049 | [6] -0.038 | duvelisib 0.092 | gandotinib -0.06 | tozasertib 0.002 | [7] 0.023 | doramapimod -0.011 | ispinesib 0.044

Copied from above (two entries):
UTP15 (UniProt Q8TED0)
inactive: [1] -0.078 | filanesib 0.438 | zotarolimus 0.003 | idasanutlin 0.167 | alisertib -0.04 | [2] -0.003 | gefitinib -0.056 | [3] -0.103 | lapatinib 0.139 | pictilisib -0.115 | [4] -0.079 | crizotinib 0.065 | [5] -0.49 | [6] 0.416 | duvelisib -0.15 | gandotinib 0.236 | tozasertib -0.024 | [7] -0.028 | doramapimod 0.201 | ispinesib -0.148

UBXN7 (UniProt O94888)
inactive: [1] 0 | filanesib -0.021 | zotarolimus 0.051 | idasanutlin -0.083 | alisertib -0.021 | [2] 0.001 | gefitinib 0.002 | [3] 0.024 | lapatinib 0.019 | pictilisib -0.014 | [4] -0.02 | crizotinib 0.004 | [5] 0.049 | [6] -0.038 | duvelisib 0.092 | gandotinib -0.06 | tozasertib 0.002 | [7] 0.023 | doramapimod -0.011 | ispinesib 0.044

The listing continues.

UPF2 (UniProt Q9HAU5)
inactive: [1] -0.037 | filanesib 0.352 | zotarolimus 0.051 | idasanutlin 0.128 | alisertib 0 | [2] 0.105 | gefitinib 0.008 | [3] -0.159 | lapatinib 0.059 | pictilisib -0.023 | [4] -0.034 | crizotinib 0.018 | [5] -0.299 | [6] 0.327 | duvelisib -0.13 | gandotinib 0.054 | tozasertib 0.052 | [7] 0.083 | doramapimod 0.182 | ispinesib -0.11

UQCC1 (UniProt Q9NVA1)
inactive: [1] -0.006 | filanesib -0.023 | zotarolimus 0.035 | idasanutlin -0.017 | alisertib 0.019 | [2] -0.113 | gefitinib -0.003 | [3] 0.018 | lapatinib 0.014 | pictilisib 0.047 | [4] -0.017 | crizotinib -0.023 | [5] -0.019 | [6] -0.095 | duvelisib 0.022 | gandotinib 0.014 | tozasertib 0.032 | [7] 0.022 | doramapimod 0.023 | ispinesib -0.075

VAMP4 (UniProt O75379)
inactive: [1] -0.055 | filanesib -0.013 | zotarolimus -0.04 | idasanutlin 0 | alisertib -0.071 | [2] 0.077 | gefitinib 0.026 | [3] 0.053 | lapatinib -0.013 | pictilisib 0.084 | [4] 0.026 | crizotinib -0.142 | [5] -0.189 | [6] -0.055 | duvelisib -0.018 | gandotinib 0.044 | tozasertib -0.018 | [7] -0.051 | doramapimod 0.059 | ispinesib -0.202

UFC1 (UniProt Q9Y3C8)
inactive: [1] 0.007 | filanesib 0.001 | zotarolimus 0.005 | idasanutlin -0.007 | alisertib -0.069 | [2] 0.062 | gefitinib 0.003 | [3] -0.039 | lapatinib -0.045 | pictilisib -0.06 | [4] -0.039 | crizotinib 0.146 | [5] 0.067 | [6] -0.049 | duvelisib -0.007 | gandotinib 0.037 | tozasertib 0.011 | [7] -0.032 | doramapimod -0.033 | ispinesib 0.053

VASP (UniProt P50552)
inactive: [1] 0.009 | filanesib 0.04 | zotarolimus 0.09 | idasanutlin -0.018 | alisertib 0.011 | [2] 0.118 | gefitinib 0.075 | [3] -0.067 | lapatinib -0.065 | pictilisib 0.024 | [4] 0.011 | crizotinib -0.158 | [5] -0.011 | [6] 0.132 | duvelisib -0.071 | gandotinib -0.097 | tozasertib 0.027 | [7] 0.166 | doramapimod -0.012 | ispinesib -0.125

UBFD1 (UniProt O14562)
inactive: [1] -0.011 | filanesib -0.012 | zotarolimus 0.018 | idasanutlin -0.083 | alisertib 0.016 | [2] 0.068 | gefitinib 0.027 | [3] 0.021 | lapatinib -0.03 | pictilisib 0.056 | [4] 0.026 | crizotinib -0.008 | [5] 0.026 | [6] -0.104 | duvelisib 0.017 | gandotinib -0.04 | tozasertib -0.002 | [7] 0.015 | doramapimod 0.023 | ispinesib 0.033

UQCRQ (UniProt O14949)
inactive: [1] -0.008 | filanesib -0.033 | zotarolimus -0.027 | idasanutlin -0.012 | alisertib -0.136 | [2] -0.027 | gefitinib 0.004 | [3] 0.065 | lapatinib 0 | pictilisib 0.081 | [4] 0.035 | crizotinib 0.079 | [5] -0.058 | [6] -0.071 | duvelisib -0.018 | gandotinib 0.068 | tozasertib -0.02 | [7] 0.023 | doramapimod -0.03 | ispinesib 0.015

UQCRB (UniProt P14927)
inactive: [1] -0.016 | filanesib 0.007 | zotarolimus -0.02 | idasanutlin 0 | alisertib -0.018 | [2] 0.005 | gefitinib -0.003 | [3] 0.031 | lapatinib -0.012 | pictilisib -0.003 | [4] 0.007 | crizotinib 0.097 | [5] 0.051 | [6] -0.057 | duvelisib 0.012 | gandotinib -0.02 | tozasertib 0.009 | [7] -0.065 | doramapimod -0.041 | ispinesib 0.044

USE1 (UniProt Q9NZ43)
inactive: [1] -0.028 | filanesib 0.002 | zotarolimus -0.068 | idasanutlin -0.002 | alisertib -0.124 | [2] 0.015 | gefitinib 0.009 | [3] -0.087 | lapatinib 0.041 | pictilisib -0.008 | [4] 0 | crizotinib 0.04 | [5] -0.01 | [6] 0.072 | duvelisib -0.046 | gandotinib -0.047 | tozasertib -0.03 | [7] -0.017 | doramapimod 0.02 | ispinesib -0.06

UQCRC1 (UniProt P31930)
inactive: [1] -0.013 | filanesib -0.063 | zotarolimus -0.009 | idasanutlin -0.022 | alisertib -0.095 | [2] 0.044 | gefitinib 0.011 | [3] 0.041 | lapatinib -0.017 | pictilisib -0.011 | [4] -0.01 | crizotinib 0.076 | [5] 0.046 | [6] -0.032 | duvelisib 0.011 | gandotinib 0.024 | tozasertib -0.005 | [7] -0.041 | doramapimod -0.01 | ispinesib 0.03

UBL4A (UniProt P11441)
inactive: [1] -0.07 | filanesib 0.017 | zotarolimus 0.039 | idasanutlin 0.147 | alisertib -0.011 | [2] -0.013 | gefitinib -0.029 | [3] 0.008 | lapatinib 0.021 | pictilisib 0.027 | [4] 0.03 | crizotinib 0.064 | [5] 0.062 | [6] -0.039 | duvelisib 0.034 | gandotinib -0.063 | tozasertib 0.081 | [7] 0.094 | doramapimod 0.017 | ispinesib -0.006

VAC14 (UniProt Q08AM6)
inactive: [1] 0.006 | filanesib -0.115 | zotarolimus -0.013 | idasanutlin -0.061 | alisertib -0.02 | [2] -0.005 | gefitinib -0.033 | [3] 0.048 | lapatinib 0.037 | pictilisib 0.014 | [4] 0.042 | crizotinib -0.17 | [5] 0.048 | [6] -0.044 | duvelisib -0.018 | gandotinib -0.104 | tozasertib -0.004 | [7] 0.022 | doramapimod 0.002 | ispinesib -0.091
